# Experimental data reported in paper PMC10750215.
# By UniProt entry, the sequences of proteins in these tests, tags left out.
# UniProt Q15672: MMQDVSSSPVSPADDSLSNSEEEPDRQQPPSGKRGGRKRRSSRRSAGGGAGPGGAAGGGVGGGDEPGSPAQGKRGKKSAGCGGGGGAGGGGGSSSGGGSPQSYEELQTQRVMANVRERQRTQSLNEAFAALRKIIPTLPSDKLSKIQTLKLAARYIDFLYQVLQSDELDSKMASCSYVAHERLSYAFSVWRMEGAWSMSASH
# UniProt P25490: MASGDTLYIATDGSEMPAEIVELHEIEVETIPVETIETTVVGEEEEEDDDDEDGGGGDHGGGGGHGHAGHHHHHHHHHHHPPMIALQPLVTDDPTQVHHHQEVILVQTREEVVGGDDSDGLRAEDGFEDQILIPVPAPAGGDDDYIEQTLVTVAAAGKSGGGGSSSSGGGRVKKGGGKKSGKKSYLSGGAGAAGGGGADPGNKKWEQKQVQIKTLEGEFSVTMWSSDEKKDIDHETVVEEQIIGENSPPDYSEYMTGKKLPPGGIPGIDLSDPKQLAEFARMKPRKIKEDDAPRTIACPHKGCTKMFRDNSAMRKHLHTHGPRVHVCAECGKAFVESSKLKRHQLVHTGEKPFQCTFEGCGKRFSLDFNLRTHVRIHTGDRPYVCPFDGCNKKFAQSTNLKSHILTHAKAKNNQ
# These are yes or no findings as the source states them, for the method shown. In cells and extracts the contact can be indirect. Some binding calls cover weakened binding; strength is not graded here.
# Key:
# [1] = biological target: T1, Vitamin D binding protein (VDBP), endogenous (human (endogenous in MHCC-97H)) (UniProt P02774); experiment: co-IP; MHCC-97H cells on Matrigel 3D culture; IP with anti-VDBP or with anti-Twist1, immunoblot for Twist1 and VDBP
# T1 sequence: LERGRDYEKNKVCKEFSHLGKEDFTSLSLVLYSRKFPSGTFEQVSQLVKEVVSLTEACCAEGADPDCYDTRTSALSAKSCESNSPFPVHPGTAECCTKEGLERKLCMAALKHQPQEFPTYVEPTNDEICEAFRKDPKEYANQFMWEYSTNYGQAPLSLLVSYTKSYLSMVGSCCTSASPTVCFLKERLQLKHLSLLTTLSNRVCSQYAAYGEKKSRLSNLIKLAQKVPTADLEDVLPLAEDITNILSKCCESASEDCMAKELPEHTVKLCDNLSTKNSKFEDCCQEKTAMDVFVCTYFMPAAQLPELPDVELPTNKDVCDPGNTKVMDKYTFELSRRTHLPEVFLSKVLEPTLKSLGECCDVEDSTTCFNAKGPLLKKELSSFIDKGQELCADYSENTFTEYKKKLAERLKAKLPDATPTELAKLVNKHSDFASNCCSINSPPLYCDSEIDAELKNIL
# [2] = biological target: T1, Vitamin D binding protein (VDBP), endogenous (human (endogenous in MHCC-97H)); experiment: proximity ligation; PLA on liver tumour tissue of MHCC-97H-luc-tumor-bearing BALB/c-nude mice, with or without VD3 supplementation
# [3] = biological target: T1, Vitamin D binding protein (VDBP), endogenous (human (endogenous in MHCC-97H)); experiment: proximity ligation; PLA with VDBP and Twist1 in Twist1-negative cells (SNU-387) and Twist1-positive cells (SK-HEP-1), Matrigel 3D culture
# [4] = biological target: T2, Vitamin D receptor (VDR), endogenous (human (endogenous in MHCC-97H)) (UniProt P11473); experiment: proximity ligation; PLA with VDR and YY1 in MHCC-97H cells, Matrigel 3D culture, different concentrations of VD
# T2 sequence: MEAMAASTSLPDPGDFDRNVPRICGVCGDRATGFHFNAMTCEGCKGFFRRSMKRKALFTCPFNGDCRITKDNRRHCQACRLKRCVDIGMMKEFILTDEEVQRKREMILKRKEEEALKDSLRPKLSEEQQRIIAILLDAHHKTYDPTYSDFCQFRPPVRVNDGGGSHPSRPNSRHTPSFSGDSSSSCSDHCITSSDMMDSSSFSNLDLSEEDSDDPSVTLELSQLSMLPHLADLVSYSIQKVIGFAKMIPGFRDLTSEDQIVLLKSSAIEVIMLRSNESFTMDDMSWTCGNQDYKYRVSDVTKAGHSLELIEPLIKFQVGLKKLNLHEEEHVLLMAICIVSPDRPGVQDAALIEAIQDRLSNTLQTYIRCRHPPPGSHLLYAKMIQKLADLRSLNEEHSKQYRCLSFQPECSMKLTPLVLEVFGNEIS
# [5] = biological target: T2, Vitamin D receptor (VDR), endogenous (human (endogenous in MHCC-97H)); experiment: co-IP; MHCC-97H cells, treated with VD at rising doses; IP with anti-VDR or with anti-YY1, immunoblot for VDR and YY1
# [6] = biological target: T2, Vitamin D receptor (VDR), endogenous (human (endogenous in MHCC-97H)); experiment: proximity ligation; PLA on liver tumour tissue of MHCC-97H-luc-tumor-bearing BALB/c-nude mice, with or without VD3 supplementation
binding [1],binding [2],binding [3],binding [4],binding [5],binding [6],Substance
binds,binds,binds,–,–,–,Twist1 (from UniProt Q15672 1-202)
–,–,–,binds,binds,binds,Yin Yang 1 (YY1) (from UniProt P25490 1-414)
